# Hit rate of the full screen: of about 340,000 compounds, about 170 (0.05%) were called active. Inconclusive means that the source gave no clear call. Such entries were picked first, then a sample of the others. Calls come from the whole dose curve; as a rule, active = well fitted inhibition curve with a large enough effect in the signal ratio, with a control signal flat (not every such curve was filed as active); inconclusive = small, poorly fitted or top-dose-only effect, or effect the other way, or a change in a side signal; inactive = flat fitted curve, though single readings scatter; the % refers to the signal ratio. Potencies of inconclusive entries are doubtful fits and often do not repeat. Peptide text beside a SMILES is read from it. * marks the point of attachment. PhAc = O=C(Cc1ccccc1)*; OBn = c1ccc(CO*)cc1
# Assay: qHTS Assay to Find Inhibitors of Chronic Active B-Cell Receptor Signaling;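 for activity change, negative = inhibition: plate controls were basal doxycycline-induced cells for no effect and cells given 10 µM MG132 for full effect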
# Conditions: ABC-DLBCL IkBa-CBG/CBR reporter, luminescence ratio (green luciferase fused to IkBa over red control in TMD8 lymphoma cells), 4 h; activity change, negative = inhibition: at 46.1 µM (top of the series) unless noted
# Method in brief: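 TMD8 human ABC-DLBCL cells with doxycycline-inducible IκBα–green luciferase fusion and unfused red luciferase, in 0.5% FBS medium; compounds up to 46 uM, 4 h at 37C. Green/red luminescence ratio, filter-overlap corrected, fitted to concentration-response curves.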
# Potency is the fitted concentration of half-maximal effect.
SMILES,"activity change, negative = inhibition",Potency
COc1ccc2sc(-c3ccc(S(C)(=O)=O)cc3)c(C(=O)NCCc3c[nH]c4ccccc34)c2c1,inactive,
CCOC(=O)c1c(N2C(=O)C=CC2=O)sc(C)c1C,inconclusive: 12.2%,
N/C(=N\OC(=O)C1CCCCC1)c1cccc([N+](=O)[O-])c1,inconclusive: 13.4%,
COCC(C)n1c(C)cc(C(=O)CSc2nnc(Nc3ccccc3F)s2)c1C (stereo not drawn),inconclusive: 9.4%,
COc1ccc(N2CCN(c3nc(-c4cccs4)nc4ccccc34)CC2)cc1,inactive,
CC(=O)NC1C(=O)N=C(SCc2ccccc2)NC1=O (stereo not drawn),inconclusive: -1.72%,
Cc1[nH]c2ccccc2c1C(C#N)(C#N)C1C(=O)c2ccccc2C1=O,inconclusive: 6.02%,
CCn1cc(C(=O)N(CCC(C)C)c2c(N)n(Cc3ccccc3)c(=O)[nH]c2=O)c(=O)c2ccc(C)nc21,inconclusive: -9.4%,
CCCCn1c(SCC(=O)N2CCC(C)CC2)nc2ccsc2c1=O,inconclusive: 5.62%,
CCN(CC)C(=O)c1ccc(CS(=O)(=O)Cc2ccccc2)cc1,inactive,
N#Cc1ncc(C(F)(F)F)cc1Sc1ccc(N)cc1,inconclusive: -1.24%,
CC(C)NC(=O)CSc1nc(-c2ccccc2)cs1,inactive,
CC(C)N(Cc1nc(-c2ccc(Cl)cc2)no1)C(=O)c1cccs1,inconclusive: 1.58%,
COC(=O)C(NC(=O)c1ccco1)(Nc1nc(C)cs1)C(F)(F)F (stereo not drawn),inconclusive: 3.01%,
CCn1c(SCC(=O)c2cc(C)ccc2C)nc2cc(S(=O)(=O)N3CCOCC3)ccc21,inactive,
Cc1ccc(NC(=O)CSc2nc(C)c(C)c(C)n2)cc1S(=O)(=O)N1CCOCC1,inactive,
CC1(C)CC(=O)CC2(C1)NCC(c1ccccc1Cl)c1c2[nH]c2ccccc12 (stereo not drawn),inconclusive: -7.97%,
Cc1nn(C)c(C)c1NC(=O)c1cc2nc(-c3ccco3)cc(C(F)(F)F)n2n1,inconclusive: 16.4%,
O=C(/C=C/Sc1ccc(C(F)(F)F)cn1)c1ccccc1,inconclusive: -0.0472%,
Cc1c(Cc2ccccc2)c(=O)oc2cc(O)cc(O)c12,inconclusive: -18.1%,
CCOc1ncccc1C(=O)OCC(=O)c1ccc(Br)s1,inconclusive: 3.07%,

SMILES,"activity change, negative = inhibition",Potency
Cc1cc(C)c(O)c(C2(O)C(=O)c3ccccc3C2=O)c1,inconclusive: 5.78%,
O=C(CSc1nc2ccccc2o1)N1c2ccccc2Sc2ccc(C(F)(F)F)cc21,inactive,
CC(C)(Cc1ccccc1)/[N+]([O-])=C\c1ccccc1,inactive,
O=C(c1ccc(S(=O)(=O)Cc2ccccc2F)c([N+](=O)[O-])c1)N1CCCC1,inconclusive: 1.77%,
O=C(Oc1ccc2c(c1)OCO2)c1ccc(F)cc1Cl,inconclusive: -0.4%,
CCOC(=O)N1CCN(C(=S)NC2CCCCC2)CC1,inconclusive: 2.38%,
CCCCc1ccc(NC(=O)C2CCN(S(C)(=O)=O)CC2)cc1,inconclusive: 0.174%,
O=C(Nc1nnc(Cc2ccccc2F)s1)c1ccccc1Cl,,"inconclusive: 3.16 µM [falling, full curve, poor fit]"
CC(=O)N(C(C)=O)c1c(N2CCCC2)c2ccccc2oc1=O,,"inconclusive: 15.8 µM [falling, single point]"
CCC(C)(C)c1ccc(OCCCC[n+]2ccccc2)c(C(C)(C)CC)c1,inconclusive: -8.03%,
O=C(Nc1cccc(Cl)c1)OCCOc1ccccc1,inconclusive: 2.75%,
COc1ccc(S(=O)(=O)N2CCOCC2)cc1NC(=O)CSc1cccc[n+]1[O-],inconclusive: -4.87%,
CCC1=Nc2cc(C(=O)NCc3ccc(C)cc3)ccc2Sc2ccc(C)cc21,inactive,
CCOc1ccc(S(=O)(=O)N(CC)CC)cc1NC(=O)CSCc1c(C)noc1C,inactive,
COc1ccc(-c2csc3ncnc(N4CCN(c5ccccc5)CC4)c23)cc1,inactive,
O=C(CNC(=O)Cc1ccccc1)NCC(=O)OCc1ccccc1 (PhAc-Gly-Gly-OBn),inconclusive: 9.25%,
COC(=O)c1ccc(NC(=O)CC2C(=O)N(c3ccc(C)cc3)C(=O)N2CC(C)C)cc1 (stereo not drawn),inconclusive: 23.4%,
CCCCCC(=O)NNC(=S)NC(=O)c1ccc([N+](=O)[O-])cc1,inconclusive: 14.5%,
O=C(O)c1ccccc1C(=O)NNc1ccc(F)cc1F,inconclusive: 2.14%,
Nc1nc(CN2CCN(c3cccc(Cl)c3)CC2)nc(N2CCCc3ccccc32)n1,,"inconclusive: 29.1 µM [falling, single point]"
CCOc1ccc(CNC(=O)C2CCN(C(=O)N3CC(C)Oc4ccccc43)CC2)cc1 (stereo not drawn),inactive,

SMILES,"activity change, negative = inhibition",Potency
CCOc1ccc(CCNC(=O)Cn2c(=O)c3cccn3c3cccnc32)cc1,inactive,
CCc1ccc(NC(=O)c2ccc3c(=O)n4c(nc3c2)CCCCC4)cc1,inconclusive: -17.7%,
COCCCn1c(SCC(=O)Nc2ccccc2OC)nc2c(sc3ccccc32)c1=O,inactive,
COc1ccc(NC(=O)Nc2ccccc2C(=O)N2CCCC2)cc1,inconclusive: -2.38%,
COc1ccccc1NC(=O)CSc1nc(=O)n2cc(C)ccc2n1,inconclusive: -14.8%,
COc1ccccc1C(=O)NC(=O)COC(=O)C1CC1C (stereo not drawn),,"inconclusive: 18.4 µM [falling, partial curve]"
COC(=O)c1ccc(Cn2c(O)c(N=NC(N)=S)c3ccccc32)o1,,"inconclusive: 31.6 µM [falling, single point]"
Cc1nnnn1/C(=C\c1ccccc1)C(=O)OCC(=O)N(C)C1CCS(=O)(=O)C1 (stereo not drawn),,"inconclusive: 35.5 µM [falling, single point]"
Cc1cccc(C(=O)Nc2ccccc2C(=O)OCc2c(C)noc2C)c1,inconclusive: 13.3%,
CCOC(=O)c1cc(-c2ccc(N3CCOCC3)cc2)nn1-c1ccccc1C(=O)O,inconclusive: 10.2%,
COc1ccc2cc1Oc1ccc(cc1)CC1c3c(cc(OC)c4c3Oc3cc5c(cc3O4)CCNC5C2)CCN1C (stereo not drawn),,"inconclusive: 7.08 µM [falling, partial curve]"
CCOC(=O)CSc1nnc(-c2ccco2)n1C,inconclusive: 1.01%,
CCOc1cc(S(=O)(=O)N2CC=C(c3ccc(F)cc3)CC2)c(OCC)cc1-n1cnnn1,inactive,
COc1ccc(/C(C)=N/OC/C(O)=C(\C#N)c2nc3ccccc3[nH]2)cc1,,"inconclusive: 20.6 µM [falling, partial curve]"
Cc1cccc(-c2cccc(NC(=O)C3CCCN(Cc4cccnc4)C3)c2)c1 (stereo not drawn),inconclusive: -21.1%,
C/C(=N\NC(=S)NC1CCCCC1)c1ccc(Cl)c(Cl)c1,inconclusive: -10.7%,
Cc1ccc(S(=O)(=O)N2CCN(C(=O)c3c(-c4ccccc4)noc3C)CC2)cc1C,inactive,
Cn1c(=O)c2c(nc(NCc3ccc4c(c3)OCO4)n2Cc2ccc(F)cc2)n(C)c1=O,inconclusive: 4.31%,
O=[N+]([O-])c1ccc(/C=N/n2cnc3ccccc32)s1,inactive,
CSC(=NC#N)N1CCN(C(=NC#N)SC)CC1,,"inconclusive: 15.8 µM [falling, single point]"
Cn1c(=O)[nH]c(=O)c2c1nc(SCc1ccccc1Cl)n2CC(N)=O,inactive,

SMILES,"activity change, negative = inhibition",Potency
CCOC(=O)CC(NC(=O)CCc1c(C)nc2nc(C)nn2c1C)c1ccc(OC(C)C)cc1 (stereo not drawn),inconclusive: 11.7%,
COc1ccc(CCC(=O)NCCNC(=O)CCc2ccc(OC)cc2)cc1,inactive,
O=C(CCc1ccccc1)NC(c1cccs1)c1cc(Cl)c2cccnc2c1O (stereo not drawn),inconclusive: 25.2%,
CCN1CCN(Cc2cccc(Oc3ccc(Cl)cc3)c2)CC1,,"inconclusive: 29.1 µM [falling, single point]"
COc1ccc(-c2csc(-c3cccs3)n2)cc1OC,inconclusive: -2.16%,
O=C(CNC(=O)C(c1ccccc1)c1ccccc1)N/N=C\c1cccc(O)c1,inconclusive: 14.2%,
O=C(CN(c1ccccc1)S(=O)(=O)c1ccccc1)Nc1ccc(F)cc1,inactive,
C=CC[C@H]1Cc2c(cccc2[N+](=O)[O-])[C@H](CC=C)N1,,"inconclusive: 22.4 µM [falling, partial curve, poor fit]"
Cc1ccc(-n2ncc(-c3nn[nH]n3)c2N)cc1,inconclusive: 12.5%,
C=C(C)CSc1nc2c(cc1C#N)CCC2,inconclusive: 6.29%,
CC(C(=O)Nc1ccc(S(=O)(=O)N2CCCC2)cc1)N(C)Cc1ccc(F)cc1 (stereo not drawn),inactive,
COc1ccc(CCNC(=O)/C(C#N)=C/c2ccc(OCC(=O)NCC3CCCO3)cc2)cc1OC (stereo not drawn),inconclusive: -12.1%,
O=C(Nc1ccc2c(c1)OCO2)c1cc2n(n1)C(C(F)(F)F)CC(c1ccccc1)N2 (stereo not drawn),inconclusive: 6.51%,
CCCCN(CCCC)C(=O)CSc1nnc2n(C)c(=O)c3c4c(sc3n12)CCCC4,inconclusive: 10.5%,
CS(=O)(=O)c1ccc(-c2nnn(CC(=O)Nc3ccc4c(c3)OCCO4)n2)cc1,,"inconclusive: 2 µM [falling, partial curve, poor fit]"
COC(=O)CCC/C=C1/SCC(NC(=O)c2ccccc2)C1=O (stereo not drawn),inconclusive: 20.8%,
Cc1cccc(OCC(=O)Nc2cccc(C(=O)Nc3ccccc3C(=O)O)c2)c1,inconclusive: -13.7%,
Nc1nccc(/C=C/c2c(F)cccc2Cl)n1,,"inconclusive: 20 µM [falling, single point]"
O=C(NNC(=O)c1cc(Br)c(Br)s1)c1csc(N2CCOCC2)n1,,"inconclusive: 18.4 µM [falling, partial curve]"
O=C(Nc1ccc(OCC(=O)N2CCOCC2)cc1)c1cccc(Cl)c1,inconclusive: -0.994%,

# 15 entries from above, reformatted:
SMILES	activity change, negative = inhibition	Potency
O=C(CCc1ccccc1)NC(c1cccs1)c1cc(Cl)c2cccnc2c1O (stereo not drawn)	inconclusive: 25.2%	
CCN1CCN(Cc2cccc(Oc3ccc(Cl)cc3)c2)CC1		inconclusive: 29.1 µM [falling, single point]
COc1ccc(-c2csc(-c3cccs3)n2)cc1OC	inconclusive: -2.16%	
O=C(CNC(=O)C(c1ccccc1)c1ccccc1)N/N=C\c1cccc(O)c1	inconclusive: 14.2%	
O=C(CN(c1ccccc1)S(=O)(=O)c1ccccc1)Nc1ccc(F)cc1	inactive	
C=CC[C@H]1Cc2c(cccc2[N+](=O)[O-])[C@H](CC=C)N1		inconclusive: 22.4 µM [falling, partial curve, poor fit]
Cc1ccc(-n2ncc(-c3nn[nH]n3)c2N)cc1	inconclusive: 12.5%	
C=C(C)CSc1nc2c(cc1C#N)CCC2	inconclusive: 6.29%	
CC(C(=O)Nc1ccc(S(=O)(=O)N2CCCC2)cc1)N(C)Cc1ccc(F)cc1 (stereo not drawn)	inactive	
COc1ccc(CCNC(=O)/C(C#N)=C/c2ccc(OCC(=O)NCC3CCCO3)cc2)cc1OC (stereo not drawn)	inconclusive: -12.1%	
O=C(Nc1ccc2c(c1)OCO2)c1cc2n(n1)C(C(F)(F)F)CC(c1ccccc1)N2 (stereo not drawn)	inconclusive: 6.51%	
CCCCN(CCCC)C(=O)CSc1nnc2n(C)c(=O)c3c4c(sc3n12)CCCC4	inconclusive: 10.5%	
CS(=O)(=O)c1ccc(-c2nnn(CC(=O)Nc3ccc4c(c3)OCCO4)n2)cc1		inconclusive: 2 µM [falling, partial curve, poor fit]
COC(=O)CCC/C=C1/SCC(NC(=O)c2ccccc2)C1=O (stereo not drawn)	inconclusive: 20.8%	
Cc1cccc(OCC(=O)Nc2cccc(C(=O)Nc3ccccc3C(=O)O)c2)c1	inconclusive: -13.7%	

# From PubChem BioAssay AID493014 (National Center for Advancing Translational Sciences (NCATS), 2011)
